The values that follow come from publication PMC5701254.

The test addresses T1, endogenous LAMP2A (lysosome-associated membrane protein 2 A) (mouse (endogenous in SN4741)) (UniProt P17047).
T1 sequence: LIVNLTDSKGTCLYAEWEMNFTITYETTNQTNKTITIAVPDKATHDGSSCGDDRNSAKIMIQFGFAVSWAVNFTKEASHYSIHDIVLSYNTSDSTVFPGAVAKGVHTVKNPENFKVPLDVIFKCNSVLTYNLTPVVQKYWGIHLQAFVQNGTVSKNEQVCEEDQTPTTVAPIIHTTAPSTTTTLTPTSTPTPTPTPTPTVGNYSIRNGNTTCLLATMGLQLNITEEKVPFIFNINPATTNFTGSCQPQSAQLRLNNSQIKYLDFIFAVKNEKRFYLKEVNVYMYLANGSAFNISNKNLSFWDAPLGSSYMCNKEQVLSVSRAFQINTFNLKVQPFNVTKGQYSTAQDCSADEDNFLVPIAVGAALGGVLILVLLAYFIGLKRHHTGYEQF
Briefly: co-IP; immunoprecipitation of endogenous proteins from SN4741 cells, basal condition and after Tg treatment; which protein was precipitated is not told.

These are yes or no findings as the source states them, for the method shown. In cells and extracts the contact can be indirect. Binding calls can cover weak binding; strength is not graded here.

Regarding “endogenous p38 MAPK (mouse (endogenous in SN4741)) (enzyme)”, the binding entry is “binds”.
